{"source": "paper PMC7862700", "note": "The list shows a part of the results. The source does not settle which construct or isoform was used.", "data": [{"molecular_target": "T1, ETS1 (UniProt P14921)", "T1 sequence": "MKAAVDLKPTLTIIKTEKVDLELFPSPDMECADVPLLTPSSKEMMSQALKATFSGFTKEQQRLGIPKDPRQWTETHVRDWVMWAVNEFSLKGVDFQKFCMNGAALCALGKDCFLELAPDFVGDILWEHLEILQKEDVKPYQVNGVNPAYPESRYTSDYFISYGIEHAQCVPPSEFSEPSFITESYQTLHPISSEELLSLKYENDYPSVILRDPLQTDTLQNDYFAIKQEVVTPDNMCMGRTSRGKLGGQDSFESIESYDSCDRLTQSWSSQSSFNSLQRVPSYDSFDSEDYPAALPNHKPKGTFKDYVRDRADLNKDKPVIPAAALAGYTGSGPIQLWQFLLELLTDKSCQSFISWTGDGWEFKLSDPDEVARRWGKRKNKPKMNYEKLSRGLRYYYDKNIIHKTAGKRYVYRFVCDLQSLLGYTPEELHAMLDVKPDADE", "test": "DAPPL (digital affinity profiling via proximity ligation, sequencing)", "conditions": "10 mM Tris-HCl pH 7.5, 50 mM NaCl, 1 mM DTT, 4% glycerol, room temperature, 30 min; GST-TFs on glutathione beads, 16-mer random dsDNA library, 0.1% …; high values mean tight binding; double strand, one strand shown; scale: fold enrichment (6-mer frequency, TF over GST control)", "values": [{"sequence": "AATGTA", "binding signal": 1.25}, {"sequence": "AAGTTC", "binding signal": 1.47}, {"sequence": "ATGCCT", "binding signal": 1.29}, {"sequence": "CTCAAG", "binding signal": 1.21}, {"sequence": "CTAGAT", "binding signal": 1.18}, {"sequence": "TATCGC", "binding signal": 1.22}, {"sequence": "TTCATG", "binding signal": 1.32}, {"sequence": "CCACTG", "binding signal": 1.44}, {"sequence": "ATGAAC", "binding signal": 1.24}, {"sequence": "GGCACT", "binding signal": 1.2}, {"sequence": "TAATTA", "binding signal": 1.29}, {"sequence": "GTAGCA", "binding signal": 0.969}, {"sequence": "CTGGTA", "binding signal": 1.23}, {"sequence": "AAAGAT", "binding signal": 1.18}, {"sequence": "CACCAA", "binding signal": 1.08}, {"sequence": "CTATGT", "binding signal": 1.11}, {"sequence": "GCACAA", "binding signal": 1.06}, {"sequence": "CCAACC", "binding signal": 1.08}, {"sequence": "CCACTC", "binding signal": 1.27}, {"sequence": "TTCCAT", "binding signal": 1.32}, {"sequence": "CCCTTG", "binding signal": 1.3}, {"sequence": "CTTACA", "binding signal": 1.36}, {"sequence": "CGCAAC", "binding signal": 1.07}, {"sequence": "TTCTAG", "binding signal": 1.21}, {"sequence": "ATAAGG", "binding signal": 1.09}, {"sequence": "ACACTG", "binding signal": 1.12}, {"sequence": "TTATGC", "binding signal": 1.25}, {"sequence": "GTTCAA", "binding signal": 1.17}, {"sequence": "TAATCA", "binding signal": 1.15}, {"sequence": "GTGACC", "binding signal": 1.3}, {"sequence": "ACTGCA", "binding signal": 1.12}, {"sequence": "CGAATC", "binding signal": 0.935}, {"sequence": "TGATGT", "binding signal": 1.32}, {"sequence": "ACAAAC", "binding signal": 1.21}, {"sequence": "TTGTAA", "binding signal": 1.39}, {"sequence": "CACCGA", "binding signal": 1.04}, {"sequence": "CTTTGG", "binding signal": 1.3}, {"sequence": "AAACTC", "binding signal": 1.19}, {"sequence": "TGTGCA", "binding signal": 1.02}, {"sequence": "ACCCCT", "binding signal": 1.23}]}]}
